Measurements: US9408848B2, “Fluorescent CDK inhibitors for treatment of cancer” (Georgetown University, priority 2008, dated 2016)

System: human breast tissue
Assay: Binding ability on human breast tissue (two photon microscope)
Details: 10 uM, 1 h, compared to dansyl ethylenediamine

CC(C)[C@H](CO)Nc1nc(Nc2ccc(C(=O)NCCNS(=O)(=O)c3cccc4c(N(C)C)cccc34)c(Cl)c2)c2ncn(C(C)C)c2n1 [VMY-1-103, 2-Chloro-N-[2-(5-dimethylamino-naphthalene-1-sulfonylamino)-ethyl]-4-[2-(1-hydroxymethyl-2-methyl-propylamino)-9-isopropyl-9H-purin-6-ylamino]-benzamide]
binding ability on human breast tissue: strong binding ability; also recorded: strong affinity to binding to breast tissues compared to fluorophore alone

“Also recorded” adds a separate entry of the source.
